# Test results taken from PMC9379397.
# Amino acid sequences for entries named in this document (tags omitted). Residues count along the entry.
# UniProt P11021, residues 19-654: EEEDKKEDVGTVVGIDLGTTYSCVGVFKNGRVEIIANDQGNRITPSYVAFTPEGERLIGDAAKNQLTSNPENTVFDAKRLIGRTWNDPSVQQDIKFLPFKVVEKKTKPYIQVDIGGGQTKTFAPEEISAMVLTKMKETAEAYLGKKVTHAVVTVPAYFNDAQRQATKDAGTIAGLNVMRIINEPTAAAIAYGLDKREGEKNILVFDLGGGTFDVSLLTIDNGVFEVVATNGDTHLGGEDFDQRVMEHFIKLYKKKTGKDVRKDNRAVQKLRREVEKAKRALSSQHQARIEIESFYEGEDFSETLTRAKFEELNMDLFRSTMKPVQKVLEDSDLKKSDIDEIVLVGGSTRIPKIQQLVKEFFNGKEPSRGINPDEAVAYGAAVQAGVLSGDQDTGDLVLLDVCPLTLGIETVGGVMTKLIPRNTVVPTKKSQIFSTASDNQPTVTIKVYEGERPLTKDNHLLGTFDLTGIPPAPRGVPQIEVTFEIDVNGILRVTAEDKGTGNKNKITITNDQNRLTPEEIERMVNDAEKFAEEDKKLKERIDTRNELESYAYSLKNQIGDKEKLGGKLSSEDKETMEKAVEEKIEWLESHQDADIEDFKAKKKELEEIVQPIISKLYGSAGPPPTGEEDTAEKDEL
# These are yes or no findings as the source states them, for the method shown. In cells and extracts the contact can be indirect. Some entries that bind do so weakly or less than the wild type.
# Target: GRP78/Bip (Glucose-Regulated Protein, 78kDa; binding immunoglobulin protein) (human (endogenous in KYSE410 and KYSE450)) (UniProt P11021)
# Experiment: co-IP; endogenous proteins in ESCC cell lysates (KYSE410, KYSE450; also Sh-TMTC3 or Sh-NC cells); IP with GRP78/Bip or TMTC3 antibody, Protein A/G beads, 4 C overnight; IP lysis buffer pH 8.0 Tris-HCl 20 mM, NaCl 137 mM, NP40 1%, EDTA 2 mM; Western blot
binder,measurement,value
"Transmembrane and tetratricopeptide repeat (TPR) containing protein 3 (TMTC3) (protein, UniProt Q6ZXV5 1-915) MANINLKEITLIVGVVTACYWNSLFCGFVFDDVSAILDNKDLHPSTPLKTLFQNDFWGTPMSEERSHKSYRPLTVLTFRLNYLLSELKPMSYHLLNMIFHAVVSVIFLKVCKLFLDNKSSVIASLLFAVHPIHTEAVTGVVGRAELLSSIFFLAAFLSYTRSKGPDNSIIWTPIALTVFLVAVATLCKEQGITVVGICCVYEVFIAQGYTLPLLCTTAGQFLRGKGSIPFSMLQTLVKLIVLMFSTLLLVVIRVQVIQSQLPVFTRFDNPAAVSPTPTRQLTFNYLLPVNAWLLLNPSELCCDWTMGTIPLIESLLDIRNLATFTFFCFLGMLGVFSIRYSGDSSKTVLMALCLMALPFIPASNLFFPVGFVVAERVLYVPSMGFCILVAHGWQKISTKSVFKKLSWICLSMVILTHSLKTFHRNWDWESEYTLFMSALKVNKNNAKLWNNVGHALENEKNFERALKYFLQATHVQPDDIGAHMNVGRTYKNLNRTKEAEESYMMAKSLMPQIIPGKKYAARIAPNHLNVYINLANLIRANESRLEEADQLYRQAISMRPDFKQAYISRGELLLKMNKPLKAKEAYLKALELDRNNADLWYNLAIVHIELKEPNEALKKNFNRALELNPKHKLALFNSAIVMQESGEVKLRPEARKRLLSYINEEPLDANGYFNLGMLAMDDKKDNEAEIWMKKAIKLQADFRSALFNLALLYSQTAKELKALPILEELLRYYPDHIKGLILKGDILMNQKKDILGAKKCFERILEMDPSNVQGKHNLCVVYFEEKDLLKAERCLLETLALAPHEEYIQRHLNIVRDKISSSSFIEPIFPTSKISSVEGKKIPTESVKEIRGESRQTQIVKTSDNKSQSKSNKQLGKNGDEETPHKTTKDIKEIEKKRVAALKRLEEIERILNGE",binding,binds
